Assay results as given in patent publication US20240199717 (published 2024).

Test: Fmoc solid-phase peptide synthesis; HOSu/DCC activated esters, DIPEA
Conditions: whole synthesis, scale of the general procedure 30 mg precursor

In the case of semaglutide, the “final purity (method not given)” value is reported as “purity over 98%”.
